Data reported in publication PMC11145868, “Protein target similarity is positive predictor of in vitro antipathogenic activity: a drug repurposing strategy for Plasmodium falciparum” (Journal of Cheminformatics, 2024).

Tested on: P. falciparum Dd2-HLH
Assay: microbe, parasite or virus in culture
Assay type: cell-based
Conditions: Plasmodium falciparum, DD2, 72 h, read-out: Blood stage 72h EC50

CO[C@@H]1[C@H](N(C)C(=O)c2ccccc2)C[C@H]2O[C@]1(C)n1c3ccccc3c3c4c(c5c6ccccc6n2c5c31)C(=O)NC4 [Midostaurin]
EC50: 417 nM
